Reference: US12419871B2, “Biomolecules involved in Alzheimer's disease” (ELECTROPHORETICS LIMITED, priority 2015, dated 2025)

Assay: TMTcalibrator quantification of regulated proteins in AD CSF versus control
Parameters: species or system human
Conditions: CSF of AD patient versus control; non-modified peptides of each protein summed for three control and three AD cases

Molecule	Log2 AD/Control
Q04760 (protein, UniProt Q04760 1-184, looked up, full-length) MAEPQPPSGGLTDEAALSCCSDADPSTKDFLLQQTMLRVKDPKKSLDFYTRVLGMTLIQKCDFPIMKFSLYFLAYEDKNDIPKEKDEKIAWALSRKATLELTHNWGTEDDETQSYHNGNSDPRGFGHIGIAVPDVYSACKRFEELGVKFVKKPDDGKMKGLAFIQDPDGYWIEILNPNKMATLM	0.71
P01042 (protein, UniProt P01042 1-644, looked up, full-length) MKLITILFLCSRLLLSLTQESQSEEIDCNDKDLFKAVDAALKKYNSQNQSNNQFVLYRITEATKTVGSDTFYSFKYEIKEGDCPVQSGKTWQDCEYKDAAKAATGECTATVGKRSSTKFSVATQTCQITPAEGPVVTAQYDCLGCVHPISTQSPDLEPILRHGIQYFNNNTQHSSLFMLNEVKRAQRQVVAGLNFRITYSIVQTNCSKENFLFLTPDCKSLWNGDTGECTDNAYIDIQLRIASFSQNCDIYPGKDFVQPPTKICVGCPRDIPTNSPELEETLTHTITKLNAENNATFYFKIDNVKKARVQVVAGKKYFIDFVARETTCSKESNEELTESCETKKLGQSLDCNAEVYVVPWEKKIYPTVNCQPLGMISLMKRPPGFSPFRSSRIGEIKEETTVSPPHTSMAPAQDEERDSGKEQGHTRRHDWGHEKQRKHNLGHGHKHERDQGHGHQRGHGLGHGHEQQHGLGHGHKFKLDDDLEHQGGHVLDHGHKHKHGHGHGKHKNKGKKNGKHNGWKTEHLASSSEDSTTPSAQTQEKTEGPTPIPSLAKPGVTVTFSDFQDSDLIATMMPPISPAPIQSDDDWIPDIQIDPNGLSFNPISDFPDTTSPKCPGRPWKSVSEINPTTQMKESYYFDLTDGLS	−0.67
P13645 (protein, UniProt P13645 1-584, looked up, full-length) MSVRYSSSKHYSSSRSGGGGGGGGCGGGGGVSSLRISSSKGSLGGGFSSGGFSGGSFSRGSSGGGCFGGSSGGYGGLGGFGGGSFRGSYGSSSFGGSYGGIFGGGSFGGGSFGGGSFGGGGFGGGGFGGGFGGGFGGDGGLLSGNEKVTMQNLNDRLASYLDKVRALEESNYELEGKIKEWYEKHGNSHQGEPRDYSKYYKTIDDLKNQILNLTTDNANILLQIDNARLAADDFRLKYENEVALRQSVEADINGLRRVLDELTLTKADLEMQIESLTEELAYLKKNHEEEMKDLRNVSTGDVNVEMNAAPGVDLTQLLNNMRSQYEQLAEQNRKDAEAWFNEKSKELTTEIDNNIEQISSYKSEITELRRNVQALEIELQSQLALKQSLEASLAETEGRYCVQLSQIQAQISALEEQLQQIRAETECQNTEYQQLLDIKIRLENEIQTYRSLLEGEGSSGGGGRGGGSFGGGYGGGSSGGGSSGGGHGGGHGGSSGGGYGGGSSGGGSSGGGYGGGSSSGGHGGSSSGGYGGGSSGGGGGGYGGGSSGGGSSSGGGYGGGSSSGGHKSSSSGSVGESSSKGPRY	0.66
A6NGN9 (protein, UniProt A6NGN9 1-336, looked up, full-length) MPPPAPGARLRLLAAAALAGLAVISRGLLSQSLEFNSPADNYTVCEGDNATLSCFIDEHVTRVAWLNRSNILYAGNDRWTSDPRVRLLINTPEEFSILITEVGLGDEGLYTCSFQTRHQPYTTQVYLIVHVPARIVNISSPVTVNEGGNVNLLCLAVGRPEPTVTWRQLRDGFTSEGEILEISDIQRGQAGEYECVTHNGVNSAPDSRRVLVTVNYPPTITDVTSARTALGRAALLRCEAMAVPPADFQWYKDDRLLSSGTAEGLKVQTERTRSMLLFANVSARHYGNYTCRAANRLGASSASMRLLRPGSLENSAPRPPGLLALLSALGWLWWRM	1.24
O43790 (protein, UniProt O43790 1-486, looked up, full-length) MTCGSYCGGRAFSCISACGPRPGRCCITAAPYRGISCYRGLTGGFGSHSVCGGFRAGSCGRSFGYRSGGVCGPSPPCITTVSVNESLLTPLNLEIDPNAQCVKQEEKEQIKSLNSRFAAFIDKVRFLEQQNKLLETKLQFYQNRECCQSNLEPLFEGYIETLRREAECVEADSGRLASELNHVQEVLEGYKKKYEEEVSLRATAENEFVALKKDVDCAYLRKSDLEANVEALIQEIDFLRRLYEEEIRVLQSHISDTSVVVKLDNSRDLNMDCIIAEIKAQYDDIVTRSRAEAESWYRSKCEEMKATVIRHGETLRRTKEEINELNRMIQRLTAEVENAKCQNSKLEAAVAQSEQQGEAALSDARCKLAELEGALQKAKQDMACLIREYQEVMNSKLGLDIEIATYRRLLEGEEQRLCEGVGSVNVCVSSSRGGVVCGDLCASTTAPVVSTRVSSVPSNSNVVVGTTNACAPSARVGVCGGSCKRC	0.66
Q9Y4L1 (protein, UniProt Q9Y4L1 1-999, looked up, full-length) MADKVRRQRPRRRVCWALVAVLLADLLALSDTLAVMSVDLGSESMKVAIVKPGVPMEIVLNKESRRKTPVIVTLKENERFFGDSAASMAIKNPKATLRYFQHLLGKQADNPHVALYQARFPEHELTFDPQRQTVHFQISSQLQFSPEEVLGMVLNYSRSLAEDFAEQPIKDAVITVPVFFNQAERRAVLQAARMAGLKVLQLINDNTATALSYGVFRRKDINTTAQNIMFYDMGSGSTVCTIVTYQMVKTKEAGMQPQLQIRGVGFDRTLGGLEMELRLRERLAGLFNEQRKGQRAKDVRENPRAMAKLLREANRLKTVLSANADHMAQIEGLMDDVDFKAKVTRVEFEELCADLFERVPGPVQQALQSAEMSLDEIEQVILVGGATRVPRVQEVLLKAVGKEELGKNINADEAAAMGAVYQAAALSKAFKVKPFVVRDAVVYPILVEFTREVEEEPGIHSLKHNKRVLFSRMGPYPQRKVITFNRYSHDFNFHINYGDLGFLGPEDLRVFGSQNLTTVKLKGVGDSFKKYPDYESKGIKAHFNLDESGVLSLDRVESVFETLVEDSAEEESTLTKLGNTISSLFGGGTTPDAKENGTDTVQEEEESPAEGSKDEPGEQVELKEEAEAPVEDGSQPPPPEPKGDATPEGEKATEKENGDKSEAQKPSEKAEAGPEGVAPAPEGEKKQKPARKRRMVEEIGVELVVLDLPDLPEDKLAQSVQKLQDLTLRDLEKQEREKAANSLEAFIFETQDKLYQPEYQEVSTEEQREEISGKLSAASTWLEDEGVGATTVMLKEKLAELRKLCQGLFFRVEERKKWPERLSALDNLLNHSSMFLKGARLIPEMDQIFTEVEMTTLEKVINETWAWKNATLAEQAKLPATEKPVLLSKDIEAKMMALDREVQYLLNKAKFTKPRPRPKDKNGTRAEPPLNASASDQGEKVIPPAGQTEDAEPISEPEKVETGSEPGDTEPLELGGPGAEPEQKEQSTGQKRPLKNDEL	0.86
Q9UIC8 (protein, UniProt Q9UIC8 1-334, looked up, full-length) MATRQRESSITSCCSTSSCDADDEGVRGTCEDASLCKRFAVSIGYWHDPYIQHFVRLSKERKAPEINRGYFARVHGVSQLIKAFLRKTECHCQIVNLGAGMDTTFWRLKDEDLLPSKYFEVDFPMIVTRKLHSIKCKPPLSSPILELHSEDTLQMDGHILDSKRYAVIGADLRDLSELEEKLKKCNMNTQLPTLLIAECVLVYMTPEQSANLLKWAANSFERAMFINYEQVNMGDRFGQIMIENLRRRQCDLAGVETCKSLESQKERLLSNGWETASAVDMMELYNRLPRAEVSRIESLEFLDEMELLEQLMRHYCLCWATKGGNELGLKEITY	1.10
P22304 (protein, UniProt P22304 1-550, looked up, full-length) MPPPRTGRGLLWLGLVLSSVCVALGSETQANSTTDALNVLLIIVDDLRPSLGCYGDKLVRSPNIDQLASHSLLFQNAFAQQAVCAPSRVSFLTGRRPDTTRLYDFNSYWRVHAGNFSTIPQYFKENGYVTMSVGKVFHPGISSNHTDDSPYSWSFPPYHPSSEKYENTKTCRGPDGELHANLLCPVDVLDVPEGTLPDKQSTEQAIQLLEKMKTSASPFFLAVGYHKPHIPFRYPKEFQKLYPLENITLAPDPEVPDGLPPVAYNPWMDIRQREDVQALNISVPYGPIPVDFQRKIRQSYFASVSYLDTQVGRLLSALDDLQLANSTIIAFTSDHGWALGEHGEWAKYSNFDVATHVPLIFYVPGRTASLPEAGEKLFPYLDPFDSASQLMEPGRQSMDLVELVSLFPTLAGLAGLQVPPRCPVPSFHVELCREGKNLLKHFRFRDLEEDPYLPGNPRELIAYSQYPRPSDIPQWNSDKPSLKDIKIMGYSIRTIDYRYTVWVGFNPDEFLANFSDIHAGELYFVDSDPLQDHNMYNDSQGGDLFQLLMP	1.30
Q9UMF0 (protein, UniProt Q9UMF0 1-924, looked up, full-length) MPGPSPGLRRALLGLWAALGLGLFGLSAVSQEPFWADLQPRVAFVERGGSLWLNCSTNCPRPERGGLETSLRRNGTQRGLRWLARQLVDIREPETQPVCFFRCARRTLQARGLIRTFQRPDRVELMPLPPWQPVGENFTLSCRVPGAGPRASLTLTLLRGAQELIRRSFAGEPPRARGAVLTATVLARREDHGANFSCRAELDLRPHGLGLFENSSAPRELRTFSLSPDAPRLAAPRLLEVGSERPVSCTLDGLFPASEARVYLALGDQNLSPDVTLEGDAFVATATATASAEQEGARQLVCNVTLGGENRETRENVTIYSFPAPLLTLSEPSVSEGQMVTVTCAAGAQALVTLEGVPAAVPGQPAQLQLNATENDDRRSFFCDATLDVDGETLIKNRSAELRVLYAPRLDDSDCPRSWTWPEGPEQTLRCEARGNPEPSVHCARSDGGAVLALGLLGPVTRALSGTYRCKAANDQGEAVKDVTLTVEYAPALDSVGCPERITWLEGTEASLSCVAHGVPPPDVICVRSGELGAVIEGLLRVAREHAGTYRCEATNPRGSAAKNVAVTVEYGPRFEEPSCPSNWTWVEGSGRLFSCEVDGKPQPSVKCVGSGGATEGVLLPLAPPDPSPRAPRIPRVLAPGIYVCNATNRHGSVAKTVVVSAESPPEMDESTCPSHQTWLEGAEASALACAARGRPSPGVRCSREGIPWPEQQRVSREDAGTYHCVATNAHGTDSRTVTVGVEYRPVVAELAASPPGGVRPGGNFTLTCRAEAWPPAQISWRAPPGALNIGLSSNNSTLSVAGAMGSHGGEYECAATNAHGRHARRITVRVAGPWLWVAVGGAAGGAALLAAGAGLAFYVQSTACKKGEYNVQEAESSGEAVCLNGAGGGAGGAAGAEGGPEAAGGAAESPAEGEVFAIQLTSA	0.80
